The other results are listed elsewhere or left out.
What was measured:
Test in all cases: log2 fold change, soluble protein after heating vs DMSO (PISA); higher = thermal stabilisation; K562 cells, 10 uM, 30 min; active = over 0.2 and 3.5 SD of the protein, either way, in both replicates (recomputed)
[1] = compound: C1=CC=C(C=C1)[C@H](COC2=CC3=C(C=C2)NC(=O)N3)NC(=O)C4=CC=CN(C4=O)CC5=CC(=C(C=C5)F)F
Method in brief: (§1)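 K562 cells at 2×10^6 cells/mL were treated for 30 min with 10 μM compound, and aliquots were heated for 3 min over 48°C-58°C before pooling. Extraction used PBS with 0.5% NP-40 at 4°C, and soluble protein was the supernatant after 21,000xg for 90 min, measured by TMTpro 16plex LC-MS/MS with channel sums equalised. Thermal stability values, relative to control samples and from duplicates, are log2 fold changes.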

Chains of the proteins cited; added tags and fusions are not shown. Lines headed by an entry give the natural chain unless they say otherwise; changes in a name come on top.
UniProt Q15629: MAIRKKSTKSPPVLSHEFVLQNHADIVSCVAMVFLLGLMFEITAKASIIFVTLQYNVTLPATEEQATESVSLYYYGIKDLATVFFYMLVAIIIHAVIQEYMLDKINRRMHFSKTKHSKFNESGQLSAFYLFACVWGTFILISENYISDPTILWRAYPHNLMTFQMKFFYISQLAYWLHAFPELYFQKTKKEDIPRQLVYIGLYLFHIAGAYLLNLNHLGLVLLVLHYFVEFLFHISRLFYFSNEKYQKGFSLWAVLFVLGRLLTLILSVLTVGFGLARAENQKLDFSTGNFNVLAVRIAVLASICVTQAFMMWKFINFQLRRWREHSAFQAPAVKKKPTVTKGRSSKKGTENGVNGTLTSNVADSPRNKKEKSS
UniProt Q9Y5R8, whole entry, looked up: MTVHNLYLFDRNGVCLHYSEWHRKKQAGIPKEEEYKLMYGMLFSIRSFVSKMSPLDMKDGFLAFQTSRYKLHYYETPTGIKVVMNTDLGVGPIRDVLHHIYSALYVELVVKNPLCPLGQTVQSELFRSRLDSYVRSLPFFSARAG
UniProt Q9Y296, whole entry, looked up: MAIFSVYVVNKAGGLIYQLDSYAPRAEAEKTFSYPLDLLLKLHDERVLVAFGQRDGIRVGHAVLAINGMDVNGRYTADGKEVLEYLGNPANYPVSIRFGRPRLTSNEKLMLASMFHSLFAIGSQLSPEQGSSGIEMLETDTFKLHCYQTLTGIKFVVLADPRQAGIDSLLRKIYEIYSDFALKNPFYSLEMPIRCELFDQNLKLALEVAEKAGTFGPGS
UniProt Q16890: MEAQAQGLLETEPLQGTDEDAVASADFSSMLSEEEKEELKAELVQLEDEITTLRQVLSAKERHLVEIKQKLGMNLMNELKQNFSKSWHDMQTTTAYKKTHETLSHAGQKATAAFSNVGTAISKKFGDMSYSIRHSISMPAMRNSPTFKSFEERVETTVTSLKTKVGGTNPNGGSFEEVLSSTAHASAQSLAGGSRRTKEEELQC
UniProt P06753, whole entry, looked up: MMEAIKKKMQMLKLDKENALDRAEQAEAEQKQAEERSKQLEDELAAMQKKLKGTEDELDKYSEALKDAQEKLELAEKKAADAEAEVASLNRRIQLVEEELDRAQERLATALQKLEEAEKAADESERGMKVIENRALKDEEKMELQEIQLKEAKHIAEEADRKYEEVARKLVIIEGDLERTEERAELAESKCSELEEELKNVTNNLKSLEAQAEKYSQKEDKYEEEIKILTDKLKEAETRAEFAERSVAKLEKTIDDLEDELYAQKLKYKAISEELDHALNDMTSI
UniProt P48553, whole entry, looked up: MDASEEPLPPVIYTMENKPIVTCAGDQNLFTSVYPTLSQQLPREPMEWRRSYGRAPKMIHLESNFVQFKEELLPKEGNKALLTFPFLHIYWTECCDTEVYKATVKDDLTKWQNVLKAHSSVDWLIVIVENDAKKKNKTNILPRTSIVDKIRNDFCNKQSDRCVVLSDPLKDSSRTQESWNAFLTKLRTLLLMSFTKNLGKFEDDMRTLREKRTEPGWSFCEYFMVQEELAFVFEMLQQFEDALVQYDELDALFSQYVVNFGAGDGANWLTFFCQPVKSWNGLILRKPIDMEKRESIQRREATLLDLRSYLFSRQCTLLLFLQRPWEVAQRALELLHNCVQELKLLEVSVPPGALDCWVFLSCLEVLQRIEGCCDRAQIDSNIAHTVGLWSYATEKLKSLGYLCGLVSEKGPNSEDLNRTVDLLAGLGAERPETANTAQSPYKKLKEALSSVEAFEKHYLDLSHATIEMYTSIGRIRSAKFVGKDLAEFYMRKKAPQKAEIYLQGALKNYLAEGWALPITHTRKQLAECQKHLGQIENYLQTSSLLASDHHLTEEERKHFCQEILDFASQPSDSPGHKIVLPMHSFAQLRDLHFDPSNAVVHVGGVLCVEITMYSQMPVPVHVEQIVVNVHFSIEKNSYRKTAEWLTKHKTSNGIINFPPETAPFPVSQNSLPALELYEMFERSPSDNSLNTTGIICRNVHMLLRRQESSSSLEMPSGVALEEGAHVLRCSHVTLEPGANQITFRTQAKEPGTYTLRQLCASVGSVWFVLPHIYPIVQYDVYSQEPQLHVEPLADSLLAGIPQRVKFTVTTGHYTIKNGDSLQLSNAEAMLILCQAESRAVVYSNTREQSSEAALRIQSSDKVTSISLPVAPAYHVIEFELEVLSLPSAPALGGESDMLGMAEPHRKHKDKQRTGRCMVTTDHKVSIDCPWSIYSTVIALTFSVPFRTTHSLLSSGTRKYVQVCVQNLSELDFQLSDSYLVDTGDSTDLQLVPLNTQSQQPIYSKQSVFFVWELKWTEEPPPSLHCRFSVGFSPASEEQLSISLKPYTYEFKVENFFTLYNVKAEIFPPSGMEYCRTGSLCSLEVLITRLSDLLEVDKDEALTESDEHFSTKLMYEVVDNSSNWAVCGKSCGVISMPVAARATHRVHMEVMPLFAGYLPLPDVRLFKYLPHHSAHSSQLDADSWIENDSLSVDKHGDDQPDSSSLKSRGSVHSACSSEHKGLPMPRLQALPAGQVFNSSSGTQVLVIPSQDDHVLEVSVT
UniProt O95985: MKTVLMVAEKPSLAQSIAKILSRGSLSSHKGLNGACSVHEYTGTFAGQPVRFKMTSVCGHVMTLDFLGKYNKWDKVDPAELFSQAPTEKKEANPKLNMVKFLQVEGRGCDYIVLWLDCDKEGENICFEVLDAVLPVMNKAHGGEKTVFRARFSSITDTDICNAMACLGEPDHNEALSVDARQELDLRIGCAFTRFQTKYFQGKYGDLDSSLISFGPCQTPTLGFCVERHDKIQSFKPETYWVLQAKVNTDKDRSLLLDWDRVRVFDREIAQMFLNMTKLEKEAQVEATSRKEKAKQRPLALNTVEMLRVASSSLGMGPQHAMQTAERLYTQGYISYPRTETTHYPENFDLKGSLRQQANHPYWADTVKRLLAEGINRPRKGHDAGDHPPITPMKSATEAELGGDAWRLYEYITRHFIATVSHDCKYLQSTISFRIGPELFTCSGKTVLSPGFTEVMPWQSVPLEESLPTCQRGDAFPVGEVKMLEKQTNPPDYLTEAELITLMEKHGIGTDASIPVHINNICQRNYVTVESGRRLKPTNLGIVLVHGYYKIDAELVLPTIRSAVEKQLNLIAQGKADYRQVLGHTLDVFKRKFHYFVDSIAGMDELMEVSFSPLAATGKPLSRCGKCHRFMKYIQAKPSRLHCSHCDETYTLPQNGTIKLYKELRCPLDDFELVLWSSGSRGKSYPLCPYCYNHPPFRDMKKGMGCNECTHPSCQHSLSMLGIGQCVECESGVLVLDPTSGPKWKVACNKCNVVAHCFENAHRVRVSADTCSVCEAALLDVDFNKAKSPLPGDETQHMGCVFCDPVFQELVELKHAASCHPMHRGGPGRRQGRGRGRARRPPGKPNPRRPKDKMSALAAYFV
UniProt Q96GJ1: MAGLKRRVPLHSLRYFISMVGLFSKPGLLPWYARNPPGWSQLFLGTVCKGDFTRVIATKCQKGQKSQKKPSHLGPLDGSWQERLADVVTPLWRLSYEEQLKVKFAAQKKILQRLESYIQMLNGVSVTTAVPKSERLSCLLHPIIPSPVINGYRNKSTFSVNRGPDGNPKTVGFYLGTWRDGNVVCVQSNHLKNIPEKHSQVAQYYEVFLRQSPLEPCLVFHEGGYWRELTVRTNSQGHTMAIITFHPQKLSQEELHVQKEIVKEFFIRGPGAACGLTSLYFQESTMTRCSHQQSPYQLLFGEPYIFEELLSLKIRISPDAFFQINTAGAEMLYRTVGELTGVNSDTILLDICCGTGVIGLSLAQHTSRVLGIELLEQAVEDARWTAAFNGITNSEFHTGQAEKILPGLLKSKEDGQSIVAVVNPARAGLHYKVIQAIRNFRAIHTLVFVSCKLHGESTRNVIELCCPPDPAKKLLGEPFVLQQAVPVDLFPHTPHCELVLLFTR
UniProt O14656: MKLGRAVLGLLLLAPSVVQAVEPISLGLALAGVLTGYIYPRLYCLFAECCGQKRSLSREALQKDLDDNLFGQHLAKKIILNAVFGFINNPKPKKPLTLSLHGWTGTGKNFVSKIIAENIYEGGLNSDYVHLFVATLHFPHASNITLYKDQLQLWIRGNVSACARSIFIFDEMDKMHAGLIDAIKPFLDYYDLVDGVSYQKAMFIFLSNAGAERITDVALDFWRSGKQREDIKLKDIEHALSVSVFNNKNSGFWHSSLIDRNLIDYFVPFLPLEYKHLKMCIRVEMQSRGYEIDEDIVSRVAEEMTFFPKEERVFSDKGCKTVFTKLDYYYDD
UniProt Q13049: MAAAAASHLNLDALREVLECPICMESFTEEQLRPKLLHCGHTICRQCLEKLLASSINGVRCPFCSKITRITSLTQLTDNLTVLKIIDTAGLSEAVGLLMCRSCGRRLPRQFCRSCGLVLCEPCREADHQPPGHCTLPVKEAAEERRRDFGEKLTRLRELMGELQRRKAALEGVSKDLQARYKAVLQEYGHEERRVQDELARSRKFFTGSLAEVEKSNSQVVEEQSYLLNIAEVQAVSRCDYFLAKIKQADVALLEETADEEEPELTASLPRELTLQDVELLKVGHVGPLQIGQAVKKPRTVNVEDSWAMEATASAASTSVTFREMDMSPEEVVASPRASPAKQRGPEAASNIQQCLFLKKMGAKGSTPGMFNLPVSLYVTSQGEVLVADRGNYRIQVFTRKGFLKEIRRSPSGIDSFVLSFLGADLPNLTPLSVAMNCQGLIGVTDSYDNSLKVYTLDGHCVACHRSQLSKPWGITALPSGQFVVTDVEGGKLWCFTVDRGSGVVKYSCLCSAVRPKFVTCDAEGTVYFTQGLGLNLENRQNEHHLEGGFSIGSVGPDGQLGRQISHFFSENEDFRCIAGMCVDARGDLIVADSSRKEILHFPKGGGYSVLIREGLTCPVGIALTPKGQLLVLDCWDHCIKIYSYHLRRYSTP
UniProt Q9UJA5: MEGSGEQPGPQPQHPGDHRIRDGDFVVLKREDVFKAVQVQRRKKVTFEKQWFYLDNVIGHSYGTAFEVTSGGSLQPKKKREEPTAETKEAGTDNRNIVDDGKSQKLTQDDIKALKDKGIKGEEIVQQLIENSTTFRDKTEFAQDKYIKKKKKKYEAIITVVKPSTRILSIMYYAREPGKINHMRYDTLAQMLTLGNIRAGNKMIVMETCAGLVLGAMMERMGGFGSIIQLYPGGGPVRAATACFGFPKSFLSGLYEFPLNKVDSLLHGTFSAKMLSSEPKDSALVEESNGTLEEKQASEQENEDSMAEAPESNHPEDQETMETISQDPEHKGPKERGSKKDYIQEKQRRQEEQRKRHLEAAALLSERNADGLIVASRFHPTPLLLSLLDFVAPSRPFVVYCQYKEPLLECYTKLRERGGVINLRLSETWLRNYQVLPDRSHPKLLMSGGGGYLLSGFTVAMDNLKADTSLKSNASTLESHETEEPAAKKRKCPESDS
UniProt Q96Q05, whole entry, looked up: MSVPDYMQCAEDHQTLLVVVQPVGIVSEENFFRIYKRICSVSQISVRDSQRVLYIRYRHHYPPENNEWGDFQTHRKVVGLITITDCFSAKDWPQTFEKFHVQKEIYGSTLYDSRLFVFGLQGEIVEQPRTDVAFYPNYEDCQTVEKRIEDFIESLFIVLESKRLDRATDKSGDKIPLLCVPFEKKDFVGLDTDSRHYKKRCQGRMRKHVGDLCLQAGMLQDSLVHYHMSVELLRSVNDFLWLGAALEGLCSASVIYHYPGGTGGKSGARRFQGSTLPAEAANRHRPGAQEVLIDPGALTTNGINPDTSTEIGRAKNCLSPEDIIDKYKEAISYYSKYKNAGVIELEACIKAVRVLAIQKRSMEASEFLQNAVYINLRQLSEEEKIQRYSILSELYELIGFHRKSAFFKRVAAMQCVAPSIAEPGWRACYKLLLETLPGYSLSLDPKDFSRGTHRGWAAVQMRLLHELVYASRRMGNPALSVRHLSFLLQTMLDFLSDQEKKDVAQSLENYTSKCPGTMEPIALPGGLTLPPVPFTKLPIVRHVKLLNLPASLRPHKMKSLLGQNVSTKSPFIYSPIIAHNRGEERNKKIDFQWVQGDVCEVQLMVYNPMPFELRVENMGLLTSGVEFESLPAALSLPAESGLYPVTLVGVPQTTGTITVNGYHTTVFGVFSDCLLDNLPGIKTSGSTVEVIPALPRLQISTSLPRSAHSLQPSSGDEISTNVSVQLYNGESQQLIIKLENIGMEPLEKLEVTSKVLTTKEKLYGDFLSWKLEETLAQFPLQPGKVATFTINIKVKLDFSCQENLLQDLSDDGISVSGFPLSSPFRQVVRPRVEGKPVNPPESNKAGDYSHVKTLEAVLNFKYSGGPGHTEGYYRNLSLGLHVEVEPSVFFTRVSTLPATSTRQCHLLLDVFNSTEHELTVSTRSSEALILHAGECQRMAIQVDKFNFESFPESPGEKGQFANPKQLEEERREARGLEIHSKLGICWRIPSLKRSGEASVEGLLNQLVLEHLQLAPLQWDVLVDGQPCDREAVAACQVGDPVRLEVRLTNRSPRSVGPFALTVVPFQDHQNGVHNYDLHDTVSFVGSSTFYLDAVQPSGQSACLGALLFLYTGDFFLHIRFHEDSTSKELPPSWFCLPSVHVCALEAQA

[2] = compound: CC1=C(SC2=C1C(=N[C@H](C3=NN=C(N32)C)CC(=O)N)C4=CC=C(C=C4)Cl)C
Method in brief: as §1

[3] = compound: CC1=C2C(=CC=C1)N=C(N(C2=O)C3=CC=CC=C3C)CN4C=NC5=C(N=CN=C54)N
Method in brief: as §1

[4] = compound: Cc1sc2c(c1C)C(c1ccc(Cl)cc1)=N[C@@H](CC(=O)OC(C)(C)C)c1nnc(C)n1-2
Method in brief: as §1

[5] = compound: c1ccc([C@@H]2C[C@H]2NC2CCNCC2)cc1
Method in brief: as §1

Measured: log2 fold change

TRAM1 (UniProt Q15629)
inactive: [1] -0.167 | [2] -0.024 | [3] -0.008 | [4] 0.049 | [5] -0.018

TRAPPC1 (UniProt Q9Y5R8)
inactive: [1] -0.072 | [2] 0.122 | [3] 0.063 | [4] -0.032 | [5] -0.046

TRAPPC13 isoform 5 (UniProt A5PLN9)
inactive: [1] -0.055 | [2] 0.154 | [3] 0.08 | [4] -0.013 | [5] -0.017

TRMT11 (UniProt Q7Z4G4)
inactive: [1] 0.061 | [2] 0.07 | [3] 0.044 | [4] -0.031 | [5] 0

TRAPPC4 (UniProt Q9Y296)
inactive: [1] -0.012 | [2] 0.032 | [3] 0.056 | [4] 0.04 | [5] 0.023

TPD52L1 (UniProt Q16890)
inactive: [1] 0.094 | [2] -0.021 | [3] 0.021 | [4] -0.064 | [5] 0.014

TRAPPC8 (UniProt Q9Y2L5)
inactive: [1] -0.01 | [2] 0.05 | [3] 0.046 | [4] 0.012 | [5] -0.018

TPM3 isoform 2 (UniProt P06753)
inactive: [1] -0.043 | [2] -0.01 | [3] 0.018 | [4] -0.016 | [5] 0.013

TRAPPC10 (UniProt P48553)
inactive: [1] 0.029 | [2] 0.039 | [3] 0.024 | [4] 0.006 | [5] -0.035

TOP3B (UniProt O95985)
inactive: [1] -0.008 | [2] -0.08 | [3] -0.036 | [4] 0.074 | [5] -0.019

TRMT2B (UniProt Q96GJ1)
inactive: [1] 0.073 | [2] -0.052 | [3] 0.035 | [4] 0.136 | [5] -0.073

TRIP10 (UniProt Q15642)
inactive: [1] 0.016 | [2] 0.005 | [3] 0.081 | [4] 0.014 | [5] 0.037

TRIP10 isoform 2 (UniProt Q15642)
inactive: [1] -0.039 | [2] 0.085 | [3] 0.222 | [4] 0.03 | [5] -0.026

TOR1A (UniProt O14656)
inactive: [1] 0.015 | [2] 0.052 | [3] 0.029 | [4] -0.023 | [5] 0.046

TRIM32 (UniProt Q13049)
inactive: [1] -0.012 | [2] 0.062 | [3] -0.113 | [4] 0.107 | [5] 0.05

TOR1B (UniProt O14657)
inactive: [1] 0.013 | [2] -0.029 | [3] 0.017 | [4] -0.01 | [5] 0.003

TPM4, A0A2R8Y5V9
inactive: [1] 0.016 | [2] -0.008 | [3] -0.008 | [4] -0.006 | [5] 0.025

TPM3 isoform 4 (UniProt P06753)
inactive: [1] 0.051 | [2] -0.058 | [3] -0.145 | [4] 0.099 | [5] 0.015

TOR1AIP2 (UniProt Q8NFQ8)
inactive: [1] 0.024 | [2] 0.016 | [3] -0.009 | [4] -0.005 | [5] -0.024

TRIM28 (UniProt Q13263)
inactive: [1] -0.029 | [2] 0.029 | [3] 0.017 | [4] -0.012 | [5] 0.009

TRMT10A (UniProt Q8TBZ6)
inactive: [1] -0.038 | [2] 0.028 | [3] 0.006 | [4] -0.033 | [5] -0.055

TRMT6 (UniProt Q9UJA5)
inactive: [1] 0.089 | [2] -0.054 | [3] -0.171 | [4] 0.188 | [5] 0.07

TNPO2 (UniProt O14787)
inactive: [1] -0.067 | [2] 0.03 | [3] 0.158 | [4] -0.051 | [5] -0.005

2 consecutive records from above, quoted:
TRAPPC1 (UniProt Q9Y5R8)
inactive: [1] -0.072 | [2] 0.122 | [3] 0.063 | [4] -0.032 | [5] -0.046

TRAPPC13 isoform 5 (UniProt A5PLN9)
inactive: [1] -0.055 | [2] 0.154 | [3] 0.08 | [4] -0.013 | [5] -0.017

Remaining list, next part.

TRAPPC9 isoform 2 (UniProt Q96Q05)
inactive: [1] -0.001 | [2] 0.001 | [3] 0.062 | [4] 0.005 | [5] -0.01
